In patent US5104884A, “Triazolyl quinoline derivatives” (Alkaloida Vegyeszeti Gyar, priority 1985, dated 1992):

Experiment: ulcerogenic effect (stomach haemorrhage and ulcers)
Type: in vivo, male Wistar rats
Conditions: rat, po, acute test, rats, five hours after treatment, read-out: UD50
Description: The analgesic effect of the compounds of the present invention is tested according to the hot (56° C.) plate test on male and female CFLP strain mice weighing 18-22 g. The point of time of the appearence of the deterring reaction Abwehrreaktion is determined and related to the latent time measured on the control group Woolfe and McDonald 1944. At least 10 animals are used per dose. The test compounds are administered orally 60 minutes before the test in the form of a 1% methyl cellulose suspension. The test is carried out on separated male Wistar rats weighing 180-210 g and fasted for 16 hours. The test compounds are suspended in 1% carboxy methyl cellulose and administered orally in a dose of 10 ml/kg.
Five hours after treatment the animals are sacrificed and their stomachs are placed into a 2.5% formaline solution. The number and rate of punctiform haemorrhage and ulcers is evaluated according to the following scale:
1=some punctiform haemorrhage (<10);
2=diffuse haemorrhage or small ulcer (<2 mm);
3=two or more minor small ulcer (<2 mm);
4=one or more large ulcer (>2 mm).

Question: Which TD50 at 5 h does the source give for `COc1ccc2cc([C@H](C)C(=O)O)ccc2c1` [Naproxen, reference compound] here?
Answer: The TD50 at 5 h was 20.8 mg/kg.
